Out of some 340,000 compounds screened, about 6,200 (1.8%) were called active. The inconclusive results got no clear call from the source; some entries with a clear call stand among them for comparison. The call rests on the fitted dose curve; in most records, active means well fitted activation curve with a large enough effect; inconclusive means small, poorly fitted or top-dose-only effect; inactive means no such curve, though single readings can be large or run the other way. Potencies beside an inconclusive call are fits to weak or partial responses and may not hold up.
Test: A quantitative high throughput screen for small molecules that induce DNA re-replication in SW480 colon adenocarcinoma cells. Further: nearly all actives have a fitted effect of over 55% in size. On re-replication activation: % of control where 0% means no effect.
Conditions: Hoechst DNA content imaging, 48 h; re-replication activation: at 46.1 µM (top of the series)
Method in brief: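 Hoechst fluorescence of nuclei (405 nm excitation, 500-530 nm emission) measured by plate-scanning imager after 48 hr compound exposure at 37 C; re-replication scored as increased number of nuclei with elevated intensity.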
Potency means the concentration at half of the fitted maximal effect.

With Nc1c2c(nc3ccc(Br)cc13)N(c1ccccc1)CC2 as the compound, how does the Potency read?
Its Potency is active: 14.6 µM.

For O=C(N/N=C/c1cccc([N+](=O)[O-])c1O)C(O)(c1ccccc1)c1ccccc1, which Potency is on record?
The Potency was inconclusive: 18.4 µM [activator, single point].

Which Potency does the source give for Cc1ccc(S(=O)(=O)N(Cc2ccc(Cl)cc2)c2ccccc2C(=O)NCc2cccnc2)cc1 here?
The Potency was inconclusive: 23.1 µM [activator, single point].

For COc1ccc2sc(NC(=O)CC(C)C)nc2c1, which “re-replication activation” value is on record?
The value was inactive: 0.199%.

Which “re-replication activation” value does the source give for Cc1c(C(=O)NCC2COc3ccccc3O2)oc2ccc(S(=O)(=O)N(C)C3CCCCC3)cc12 (stereo not drawn) here?
Its value is inactive: 7.27%.

With CNC(=O)c1sc(-c2ccccn2)nc1C as the compound, how does the “re-replication activation” value read?
Its value is inactive: -21%.

For CC(=O)c1cccc(NC(=S)NC(=O)c2ccc(Br)cc2)c1, which Potency is on record?
The Potency was inconclusive: 16.4 µM [activator, single point].

For Cc1ccc(C(=O)NCC(=O)OCCOc2ccccc2Cl)cc1, which Potency is on record?
Its Potency is inconclusive: 18.4 µM [activator, single point].

Which Potency does the source give for CCCCCOc1ccc(/C=C/c2c([N+](=O)[O-])c(=O)n(C)c(=O)n2C)cc1 here?
The Potency was inconclusive: 8.2 µM [activator, partial curve].

With Cc1cc(-c2nc3ncccc3o2)ccc1NC(=O)c1ccc([N+](=O)[O-])o1 as the compound, how does the “re-replication activation” value read?
The value was inactive: -13.1%.

Which Potency does the source give for O=S(=O)(NCCCc1ccccc1)c1ccc(F)c(F)c1 here?
The Potency was inconclusive: 7.31 µM [activator, single point].

Which “re-replication activation” value does the source give for O=C(Nc1ccc(F)cc1)c1oc2ccccc2c1NC(=O)C1CC1 here?
The value was inactive: -55.3%.

Which Potency does the source give for COc1ccc(CCNC(=O)c2cc(-c3ccncc3)nc3ccc(S(=O)(=O)N4CCOCC4)cc23)cc1OC here?
The Potency was inconclusive: 16.4 µM [activator, single point].

With N#C/C(=C/c1cccc(O)c1)C(=O)NCc1ccc(Cl)cc1 as the compound, how does the “re-replication activation” value read?
Its value is inactive: 20.9%.

For CN=c1sc2ccccc2n1CC(O)c1ccccc1 (stereo not drawn), which Potency is on record?
The Potency was inconclusive: 16.4 µM [activator, partial curve, poor fit].

With CCCOc1ccc(-c2c(C(=O)N/N=C/c3ccncc3)nnn2-c2nonc2N)cc1 as the compound, how does the “re-replication activation” value read?
Its value is inactive: -6.12%.

Which Potency does the source give for Cc1cc(C)c2c(=O)n(CC(=O)Nc3ccc(Cl)cc3)sc2n1 here?
Its Potency is inconclusive: 29.1 µM [activator, single point].

For CCOc1cc2[nH]c(=S)n(Cc3ccc(C(=O)N4CCN(C)CC4)cc3)c(=O)c2cc1OCC, which Potency is on record?
The Potency was inconclusive: 29.1 µM [activator, single point].

Which Potency does the source give for Cc1cc(Cl)ccc1NC(=S)NCCc1ccc(Cl)cc1 here?
Its Potency is inconclusive: 18.4 µM [activator, partial curve, poor fit].

Which Potency does the source give for Cc1cc(/C=C(\C#N)C(=O)NCc2cccs2)c(C)n1-c1ccccc1F here?
The Potency was inconclusive: 29.1 µM [activator, single point].

For CCC(C)c1ccccc1N1CC(C(=O)N2CCN(S(=O)(=O)c3cccc([N+](=O)[O-])c3)CC2)CC1=O (stereo not drawn), which Potency is on record?
The Potency was inconclusive: 25.9 µM [activator, single point].

Which Potency does the source give for CCCCCC(=O)Nc1ccc(C(=O)CN2C(=O)NC3(CCCCCC3)C2=O)cc1 here?
Its Potency is inconclusive: 0.291 µM [activator, full curve, poor fit].

With COc1ccc(/C(C)=N/OCC(=O)Nc2nc3ccccc3s2)cc1 as the compound, how does the “re-replication activation” value read?
Its value is inactive: 2.63%.

For CCOC(=O)c1cc2sccc2n1Cc1ccccc1, which “re-replication activation” value is on record?
Its value is inactive: -2.51%.

Which Potency does the source give for C(=NN=C(NN=Cc1cccs1)NN=Cc1cccs1)c1cccs1 here?
Its Potency is inconclusive: 29.1 µM [activator, single point].

Which Potency does the source give for COc1ccc(C(CNC(=O)c2cccc(S(=O)(=O)Nc3ccc(F)cc3)c2)N2CCCCC2)cc1 (stereo not drawn) here?
Its Potency is inconclusive: 20.6 µM [activator, partial curve, poor fit].

For O=C(NNS(=O)(=O)c1ccc(Cl)cc1)c1cc(-c2ccccc2)n[nH]1, which Potency is on record?
The Potency was inconclusive: 29.1 µM [activator, single point].

For N#C/C(=C\c1ccccc1)C(=O)Nc1nncs1, which Potency is on record?
Its Potency is inconclusive: 14.6 µM [activator, partial curve, poor fit].

Which Potency does the source give for CC(C)(CCl)C(=O)Nc1ccc(Sc2ccc(F)cc2)cc1 here?
The Potency was inconclusive: 32.6 µM [activator, partial curve, poor fit].

Which Potency does the source give for c1ccc(CN2C3=NCCN3c3ccccc32)cc1 here?
The Potency was inconclusive: 0.0046 µM [activator, full curve, poor fit].

With COc1cccc(CN2CCCC(C(=O)N3CCCCC3)C2)c1 (stereo not drawn) as the compound, how does the “re-replication activation” value read?
The value was inactive: -2.08%.

With Cc1ccc(C(=O)N/N=C\c2ccc([N+](=O)[O-])o2)cn1 as the compound, how does the Potency read?
Its Potency is inconclusive: 29.1 µM [activator, single point].

For Cc1ccc(CCNC(=O)CN(C)S(=O)(=O)c2ccc3c(c2)n(C)c(=O)c(=O)n3C)cc1, which “re-replication activation” value is on record?
Its value is inactive: 8.7%.

With O=C(COC(=O)c1cc(=O)c2ccccc2o1)NCc1ccccc1 as the compound, how does the Potency read?
Its Potency is inconclusive: 18.4 µM [activator, single point].

For O=C(Nc1ccccc1N1CCOCC1)c1ccc2ccccc2c1, which “re-replication activation” value is on record?
The value was inactive: 26.2%.

For Oc1ccc(Br)cc1/C=N/Nc1ncc(-c2ccccc2)cn1, which Potency is on record?
The Potency was inconclusive: 23.1 µM [activator, single point].

For Cc1cccc2c(N=NC(=O)c3ccc(NS(=O)(=O)c4cccs4)cc3)c(O)[nH]c12, which Potency is on record?
Its Potency is inconclusive: 1.03 µM [activator, full curve, poor fit].

With Cc1cccc(C)c1Nc1nnc(SCc2nc3ccccc3c(=O)[nH]2)s1 as the compound, how does the Potency read?
The Potency was inconclusive: 25.9 µM [activator, single point].

Which Potency does the source give for COc1cc(NS(=O)(=O)c2ccc(NC(=O)CCC(=O)O)cc2)nc(OC)n1 here?
Its Potency is inconclusive: 0.103 µM [activator, full curve, poor fit].

With Cc1cc(NC(=O)c2cc(-c3ccncc3)nc3c(C)cccc23)no1 as the compound, how does the Potency read?
The Potency was active: 6.51 µM.

With O=C(c1cc2ccccc2[nH]1)N1CCOCC1 as the compound, how does the “re-replication activation” value read?
Its value is inactive: -4.78%.

Which “re-replication activation” value does the source give for O=C(CCNC(=O)c1ccccc1)NCC1CCCCC1 here?
Its value is inactive: -11.9%.

With O=C1C2C3C=CC(CNS(=O)(=O)c4ccccc4[N+](=O)[O-])(O3)C2C(=O)N1c1ccccc1 (stereo not drawn) as the compound, how does the Potency read?
Its Potency is inconclusive: 7.31 µM [activator, partial curve, poor fit].

With Cc1ccc(Cn2c(C(C)Nc3nc(-c4ccc(Cl)cc4)cs3)nc3cc(C(=O)NCCCO)ccc32)cc1 (stereo not drawn) as the compound, how does the Potency read?
The Potency was inconclusive: 25.9 µM [activator, single point].

With C(#Cc1ccccc1)C[N+]1(CC#Cc2cccc3ccccc23)CCCC1 as the compound, how does the “re-replication activation” value read?
The value was inactive: 4%.

With CC1=NN(C(=O)Cc2ccccc2)C(O)(c2ccccc2)C1 (stereo not drawn) as the compound, how does the Potency read?
The Potency was inconclusive: 5.17 µM [activator, partial curve, poor fit].

For Cc1ccc(NC(=O)CCN2CCN(C/C=C/c3ccccc3)CC2)cc1, which Potency is on record?
Its Potency is inconclusive: 18.4 µM [activator, single point].

With C/C(=N\NC(=O)c1ccc(NS(=O)(=O)c2cccs2)cc1)c1ccc(O)cc1O as the compound, how does the Potency read?
Its Potency is inconclusive: 0.461 µM [activator, full curve, poor fit].

With COc1ccc(S(=O)(=O)N2CCCOC2CNC(=O)C(=O)NCCc2ccco2)cc1C (stereo not drawn) as the compound, how does the Potency read?
The Potency was active: 18.4 µM.

Which “re-replication activation” value does the source give for NNC(=O)CN1C(=O)Nc2ccc(Cl)cc2C1c1ccccc1 (stereo not drawn) here?
The value was inactive: -1.7%.

With Cc1cc(N2CCN(C)CC2)nc2ccc(NC(=O)CCC(=O)N3CCN(c4ccc([N+](=O)[O-])cc4)CC3)cc12 as the compound, how does the Potency read?
Its Potency is inconclusive: 29.1 µM [activator, single point].

For CCC(C)[C@H](NS(=O)(=O)c1ccc(F)cc1Br)C(=O)OC (stereo partly drawn), which Potency is on record?
Its Potency is inconclusive: 2.59 µM [activator, partial curve, poor fit].

With CCOc1ccccc1C1NC(=O)c2ccccc2N1 (stereo not drawn) as the compound, how does the Potency read?
Its Potency is active: 1.84 µM.

For O=C(CSc1nnc(-c2ccco2)o1)N1CCOCC1, which Potency is on record?
Its Potency is inconclusive: 0.116 µM [activator, full curve].

Which Potency does the source give for CC1CCN(CCCNC(=O)c2ccc3c(=O)n(Cc4ccc(Cl)cc4)c(=S)[nH]c3c2)CC1 here?
Its Potency is inconclusive: 32.6 µM [activator, partial curve, poor fit].

For CN1CCN(C(=O)c2ccccc2NC(=O)c2ccc(C(C)(C)C)cc2)CC1, which Potency is on record?
The Potency was inconclusive: 16.4 µM [activator, single point].

Which “re-replication activation” value does the source give for O=C(CCc1ccccc1)Nc1ccc(F)c([N+](=O)[O-])c1 here?
Its value is inactive: -25.7%.

With COc1ccc(NC(=O)CS(=O)(=O)c2cccc(Cl)c2)cc1 as the compound, how does the Potency read?
Its Potency is inconclusive: 29.1 µM [activator, single point].

Which Potency does the source give for CC1=C(C)/C(=N\OC(=O)/C=C/c2ccccc2)C=CC1=O here?
The Potency was inconclusive: 29.1 µM [activator, single point].

With COc1ccccc1C1(CC(=O)Nc2nccs2)CCOC(C(C)C)C1 (stereo not drawn) as the compound, how does the Potency read?
Its Potency is inconclusive: 29.1 µM [activator, single point].

For O=C1C(CSCc2ccccc2)NC(=S)N1c1ccccc1 (stereo not drawn), which Potency is on record?
The Potency was inconclusive: 0.164 µM [activator, full curve, poor fit].

Which Potency does the source give for COc1ccc(/C=C(/NC(=O)c2ccccc2)C(=O)N/N=C/c2ccc3c(c2)OCO3)cc1OC here?
The Potency was inconclusive: 7.31 µM [activator, partial curve, poor fit].

With Clc1ccc(-c2cc(COc3ccccc3)no2)cc1Cl as the compound, how does the Potency read?
The Potency was inconclusive: 14.6 µM [activator, single point].

With Cc1ccc(OCc2cnc(Cl)s2)c(C)c1 as the compound, how does the “re-replication activation” value read?
The value was inactive: -2.04%.

Which “re-replication activation” value does the source give for COc1ccc(NC(=O)Cn2nnc(C(=O)NCCc3ccccc3)c2N)c(OC)c1 here?
Its value is inactive: 1.46%.

Which Potency does the source give for CC(C)(O)C#Cc1ccc([C@@H]2C[C@H]3CN(c4ccccc4)C(=O)[C@]34CCCN24)s1 here?
Its Potency is active: 8.2 µM.

Which Potency does the source give for COc1ccc(CCNC(=O)COc2ccc([N+](=O)[O-])cc2)cc1 here?
Its Potency is inconclusive: 29.1 µM [activator, partial curve, poor fit].

For CC(=O)c1c(N2CCOCC2)[nH]c(-c2ccccc2)nc1=S, which “re-replication activation” value is on record?
The value was inactive: -367%.

From PubChem BioAssay AID624297 (National Center for Advancing Translational Sciences (NCATS), 2012)
